# Assay results published in PMC10916433 (2023).
# The chains behind the UniProt entries cited, without tags or fusion partners. Where a name states a change or a piece, a line headed by the entry shows the natural chain unless it says otherwise. A line that says so, or that is headed by a name, gives the form on record, which may keep a tag or linker. Residues count along the entry.
# Flag‐tagged wild‐type RAGE (Q62151, residues 23-402): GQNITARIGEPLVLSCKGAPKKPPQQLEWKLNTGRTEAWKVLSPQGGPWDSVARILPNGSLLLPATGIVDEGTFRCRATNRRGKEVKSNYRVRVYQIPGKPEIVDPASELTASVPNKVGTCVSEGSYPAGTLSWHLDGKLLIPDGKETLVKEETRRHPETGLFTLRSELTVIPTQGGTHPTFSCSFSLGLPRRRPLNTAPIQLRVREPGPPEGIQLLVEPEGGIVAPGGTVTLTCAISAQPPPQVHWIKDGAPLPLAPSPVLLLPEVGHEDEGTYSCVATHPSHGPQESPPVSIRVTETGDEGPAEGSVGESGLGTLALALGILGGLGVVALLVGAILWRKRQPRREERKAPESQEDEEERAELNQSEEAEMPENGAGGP
# Flag‐tagged mutated RAGE (AAs 362–367) (Q62151, form named): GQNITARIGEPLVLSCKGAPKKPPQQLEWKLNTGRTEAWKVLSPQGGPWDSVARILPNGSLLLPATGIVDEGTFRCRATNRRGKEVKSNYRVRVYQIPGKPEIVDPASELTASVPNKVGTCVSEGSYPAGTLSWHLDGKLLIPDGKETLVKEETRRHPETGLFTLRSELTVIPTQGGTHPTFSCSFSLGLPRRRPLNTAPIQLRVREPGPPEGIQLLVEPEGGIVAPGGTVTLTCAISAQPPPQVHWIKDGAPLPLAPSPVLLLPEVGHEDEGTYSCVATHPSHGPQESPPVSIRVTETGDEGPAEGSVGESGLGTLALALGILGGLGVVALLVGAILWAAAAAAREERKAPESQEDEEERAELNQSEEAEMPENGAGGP
# These are yes or no findings as the source states them, for the method shown. Binding seen in cells or lysates may run through a third protein. Some entries that bind do so weakly or less than the wild type. Where a sequence is shown, tags or fusion partners need not be part of it.
# Target: T1, His‐tagged RIPK1 (UniProt Q60855)
# T1 sequence: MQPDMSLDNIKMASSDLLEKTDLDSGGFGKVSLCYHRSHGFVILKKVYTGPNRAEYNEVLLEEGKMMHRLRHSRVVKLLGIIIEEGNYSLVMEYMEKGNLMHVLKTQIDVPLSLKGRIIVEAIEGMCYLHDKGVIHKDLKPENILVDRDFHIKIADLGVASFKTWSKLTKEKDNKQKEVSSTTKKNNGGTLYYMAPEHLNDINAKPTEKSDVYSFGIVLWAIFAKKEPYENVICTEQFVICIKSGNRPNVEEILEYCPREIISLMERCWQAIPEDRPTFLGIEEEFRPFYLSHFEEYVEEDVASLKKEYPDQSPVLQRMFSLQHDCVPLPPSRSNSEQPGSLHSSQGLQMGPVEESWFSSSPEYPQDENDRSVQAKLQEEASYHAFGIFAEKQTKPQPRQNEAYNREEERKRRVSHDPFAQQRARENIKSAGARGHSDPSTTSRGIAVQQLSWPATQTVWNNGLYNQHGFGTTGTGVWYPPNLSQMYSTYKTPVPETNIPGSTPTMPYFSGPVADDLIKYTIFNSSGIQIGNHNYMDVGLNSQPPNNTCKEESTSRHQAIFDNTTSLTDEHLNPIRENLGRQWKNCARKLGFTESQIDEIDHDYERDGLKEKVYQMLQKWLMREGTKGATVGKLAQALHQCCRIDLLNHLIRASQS
# Assay: co-IP; Flag‐RAGE‐Wt/Mut and His‐RIPK1 co‐transfected into BV2 microglia; precipitated with anti‐Flag and anti‐His antibodies, respectively; Western blotting
row,binding,Substance
1,no binding,Flag‐tagged mutated RAGE (AAs 362–367) (from UniProt Q62151 23-402) (receptor)
2,binds,Flag‐tagged wild‐type RAGE (from UniProt Q62151 23-402) (receptor)
